{"sequences": {"note": "Amino acid sequences for entries named in this document (tags omitted). Residues count along the entry.", "UniProt P0A6F5, residues 2-548": "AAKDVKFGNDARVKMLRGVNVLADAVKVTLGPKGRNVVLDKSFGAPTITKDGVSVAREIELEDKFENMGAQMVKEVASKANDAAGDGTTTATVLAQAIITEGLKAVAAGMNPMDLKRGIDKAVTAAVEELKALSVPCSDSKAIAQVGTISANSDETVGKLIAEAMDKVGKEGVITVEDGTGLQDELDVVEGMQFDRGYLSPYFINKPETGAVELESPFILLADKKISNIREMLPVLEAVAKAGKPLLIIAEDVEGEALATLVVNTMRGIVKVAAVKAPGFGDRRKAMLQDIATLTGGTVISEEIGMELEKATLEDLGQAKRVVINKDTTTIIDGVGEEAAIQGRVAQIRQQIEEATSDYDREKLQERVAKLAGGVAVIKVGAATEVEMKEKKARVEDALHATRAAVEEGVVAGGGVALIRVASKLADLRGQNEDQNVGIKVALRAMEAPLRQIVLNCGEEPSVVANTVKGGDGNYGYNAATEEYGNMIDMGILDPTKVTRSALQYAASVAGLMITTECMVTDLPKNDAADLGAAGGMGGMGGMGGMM"}, "source": "paper PMC7883291", "target": "Escherichia coli GroEL chaperone (Escherichia coli) (UniProt P0A6F5)", "experiment": "cross-linking; in-gel cross-linking MS (IGX-MS) of the three BN-PAGE bands GroEL, GroEL:gp23 and GroEL:(gp23)2 with 1.5 mM DSS; both purified", "note": "These are yes or no findings as the source states them, for the method shown. Some results given as binding are weak or reduced against the parent protein; the word gives no strength.", "data": [{"binder": "bacteriophage T4 capsid protein (gp23) (protein, UniProt P04535 1-521) MTIKTKAELLNKWKPLLEGEGLPEIANSKQAIIAKIFENQEKDFQTAPEYKDEKIAQAFGSFLTEAEIGGDHGYNATNIAAGQTSGAVTQIGPAVMGMVRRAIPNLIAFDICGVQPMNSPTGQVFALRAVYGKDPVAAGAKEAFHPMYGPDAMFSGQGAAKKFPALAASTQTTVGDIYTHFFQETGTVYLQASVQVTIDAGATDAAKLDAEIKKQMEAGALVEIAEGMATSIAELQEGFNGSTDNPWNEMGFRIDKQVIEAKSRQLKAAYSIELAQDLRAVHGMDADAELSGILATEIMLEINREVVDWINYSAQVGKSGMTLTPGSKAGVFDFQDPIDIRGARWAGESFKALLFQIDKEAVEIARQTGRGEGNFIIASRNVVNVLASVDTGISYAAQGLATGFSTDTTKSVFAGVLGGKYRVYIDQYAKQDYFTVGYKGPNEMDAGIYYAPYVALTPLRGSDPKNFQPVMGFKTRYGIGINPFAESAAQAPASRIQSGMPSILNSLGKNAYFRRVYVKGI", "values": [{"measurement": "binding", "value": "binds"}]}]}
